Test results published in paper doi:10.1101/2025.05.30.657104.

Sequences of proteins named here, by UniProt entry; tags and fusion partners are left off.
UniProt Q9Y2X7: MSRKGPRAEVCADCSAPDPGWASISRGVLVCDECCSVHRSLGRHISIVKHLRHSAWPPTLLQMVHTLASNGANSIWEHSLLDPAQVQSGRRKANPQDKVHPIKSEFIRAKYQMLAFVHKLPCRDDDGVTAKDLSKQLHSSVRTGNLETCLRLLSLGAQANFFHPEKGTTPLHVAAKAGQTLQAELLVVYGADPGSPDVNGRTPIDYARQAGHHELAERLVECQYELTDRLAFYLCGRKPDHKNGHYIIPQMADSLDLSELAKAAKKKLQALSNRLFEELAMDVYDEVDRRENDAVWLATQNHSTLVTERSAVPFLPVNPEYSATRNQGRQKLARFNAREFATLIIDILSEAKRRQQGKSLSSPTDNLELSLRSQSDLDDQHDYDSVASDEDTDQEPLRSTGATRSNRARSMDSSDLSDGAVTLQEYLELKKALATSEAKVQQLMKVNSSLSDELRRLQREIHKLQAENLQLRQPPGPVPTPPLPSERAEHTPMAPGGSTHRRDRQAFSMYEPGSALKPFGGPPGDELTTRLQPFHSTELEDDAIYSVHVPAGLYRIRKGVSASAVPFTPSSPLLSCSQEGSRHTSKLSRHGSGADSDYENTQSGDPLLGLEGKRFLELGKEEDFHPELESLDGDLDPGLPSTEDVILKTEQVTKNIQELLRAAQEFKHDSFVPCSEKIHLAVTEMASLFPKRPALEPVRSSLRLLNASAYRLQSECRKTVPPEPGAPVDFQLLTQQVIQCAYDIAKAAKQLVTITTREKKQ

Experiments:
[1] = biological target: Protein kinase C alpha (PKCα) WT (human) (UniProt P17252); assay: affinity purification with mass spectrometry
[2] = biological target: Protein kinase C alpha D463H (PKCα_(D463H)) (human) (UniProt P17252); assay: affinity purification with mass spectrometry

binding [1]: binds
binding [2]: no binding
Substance: G-protein coupled receptor kinase interacting protein 1 (GIT1) (from UniProt Q9Y2X7 1-761)

No constants are given. Whether binding was seen depends on the method and setting. In cells and extracts the contact can be indirect. These calls come from enrichment with a bait or labelling near it, and not all partners need be listed. For some assays here: A no says only that the protein was not detected with the bait.
